Results published in patent US20260209300A1.
No constants are given. Whether binding was seen depends on the method and setting. Some binding calls cover weakened binding; strength is not graded here.

Sequences of proteins named here, by UniProt entry; tags and fusion partners are left off. Residues count along the entry.
UniProt P02768, residues 25-609: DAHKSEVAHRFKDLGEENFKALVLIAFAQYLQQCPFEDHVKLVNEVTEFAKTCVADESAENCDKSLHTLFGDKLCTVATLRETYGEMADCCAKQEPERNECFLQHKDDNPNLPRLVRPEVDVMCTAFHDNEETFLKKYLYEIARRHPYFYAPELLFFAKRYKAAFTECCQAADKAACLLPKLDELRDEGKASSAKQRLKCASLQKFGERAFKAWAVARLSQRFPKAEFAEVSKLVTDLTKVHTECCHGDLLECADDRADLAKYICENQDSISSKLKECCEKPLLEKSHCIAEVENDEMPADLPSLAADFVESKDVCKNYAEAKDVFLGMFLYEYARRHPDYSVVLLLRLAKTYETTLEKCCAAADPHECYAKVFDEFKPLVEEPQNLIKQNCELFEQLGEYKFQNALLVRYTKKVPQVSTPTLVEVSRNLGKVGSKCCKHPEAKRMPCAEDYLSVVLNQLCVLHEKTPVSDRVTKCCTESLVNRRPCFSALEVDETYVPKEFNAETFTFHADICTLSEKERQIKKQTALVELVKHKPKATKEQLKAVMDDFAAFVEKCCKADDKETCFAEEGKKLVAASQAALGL
UniProt P07724, residues 25-608: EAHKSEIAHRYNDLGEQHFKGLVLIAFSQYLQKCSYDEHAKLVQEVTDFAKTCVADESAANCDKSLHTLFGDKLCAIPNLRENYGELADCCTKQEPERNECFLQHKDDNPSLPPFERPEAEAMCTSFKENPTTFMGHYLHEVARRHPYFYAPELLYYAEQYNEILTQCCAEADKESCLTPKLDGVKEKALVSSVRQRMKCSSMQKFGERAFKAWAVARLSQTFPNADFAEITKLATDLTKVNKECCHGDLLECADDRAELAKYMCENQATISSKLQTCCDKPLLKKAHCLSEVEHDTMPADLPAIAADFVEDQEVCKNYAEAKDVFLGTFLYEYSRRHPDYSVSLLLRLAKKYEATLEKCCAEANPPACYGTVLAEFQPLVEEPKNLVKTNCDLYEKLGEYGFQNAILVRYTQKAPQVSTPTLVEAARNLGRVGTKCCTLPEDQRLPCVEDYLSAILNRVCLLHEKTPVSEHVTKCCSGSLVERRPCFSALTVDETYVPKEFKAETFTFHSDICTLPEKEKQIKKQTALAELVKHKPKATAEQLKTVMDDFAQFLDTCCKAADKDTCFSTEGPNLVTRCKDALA

Experiments:
[1] = target: human serum albumin (human) (UniProt P02768); assay: ELISA
[2] = target: mouse serum albumin (mouse) (UniProt P07724); assay: ELISA

binding [1]: binds
binding [2]: binds
B1: SAFA-IL-2m2 (APB-R4) (protein)
heavy: QVQLVQSGGGPVKPGGSLRLSCAASGFMFRAYSMNWVRQAPGKGLEWVSSISSSGRYIHYADSVKGRFTISRDNAKNSLYLQMNSLRAEDTAVYYCARETVMAGKALDYWGQGTLVTVSSASTKGPSVFPLAPSSKSTSEGTAALGCLVKDYFPEPVTVSWNSGALTSGVHTFPAVLQSSGLYSLSSVVTVPSSSLGTQTYICNVNHKPSNTKVDKKVEPKSSGGGGSGGGGSAPTSSSTKKTQLQLEHLLLDLQMILNGINNYKNPKLTRMLTFKFYMPKKATELKHLQCLEEELKPLEEVLNLAQSKNFHLRPRDLISRINDIVLELKGSETTFSCEYADETATIVEFLNRWITFAQSIISTLT
light: DIVLTQSPGTLSLSPGETATLSCRASQSVGSNLAWYQQKPGQAPRLLIYGASTGATGVPARFSGSRSGTDFTLTITSLQPEDFATYYCQQYYSFLAKTFGQGTQLEIKRTVAAPSVFIFPPSDEQLKSGTASVVCLLNNFYPREAKVQWKVDNALQSGNSQESVTEQDSKDSTYSLSNTLTLSKADYEKHKVYACEVTHQGLSSPVTKSFNRGES
